Reference: patent US20230331781A1, “PAR4 DERIVED PEPTIDES, ANALOGS AND USES THEREOF” (Yissum Research Development Company of the Hebrew …, priority 2019, published 2023)
Entries after “also recorded” stand apart in the source; their conditions may differ. At least one compound was matched to its structure with a doubt left.

Protein sequences, listed by entry. Tags and fused reporters are not part of them. Lines headed by an entry give the natural chain unless they say otherwise; changes in a name come on top.
UniProt P31749: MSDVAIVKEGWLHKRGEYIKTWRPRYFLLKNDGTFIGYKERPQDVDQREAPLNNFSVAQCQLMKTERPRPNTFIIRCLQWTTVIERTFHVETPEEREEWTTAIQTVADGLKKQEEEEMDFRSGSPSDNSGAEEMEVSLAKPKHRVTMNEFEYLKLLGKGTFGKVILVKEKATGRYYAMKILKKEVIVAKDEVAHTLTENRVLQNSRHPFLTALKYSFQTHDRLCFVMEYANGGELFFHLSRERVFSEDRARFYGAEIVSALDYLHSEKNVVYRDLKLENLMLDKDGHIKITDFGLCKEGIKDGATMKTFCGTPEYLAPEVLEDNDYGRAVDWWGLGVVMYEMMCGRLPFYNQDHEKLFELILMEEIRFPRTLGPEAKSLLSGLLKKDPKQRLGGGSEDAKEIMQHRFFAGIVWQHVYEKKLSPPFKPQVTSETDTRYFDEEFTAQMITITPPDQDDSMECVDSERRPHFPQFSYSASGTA

Target: T1, PAR4-Akt association (Homo sapiens, UniProt P31749)
T1 construct: FLAG; expressed in transfected cells
Assay: PAR4-Akt association, immunoprecipitation in HEK293 cells transfected with flg-Par4 and AYPGKF activated
Assay type: cell-based
Details: PI3K inhibitor; HEK 293 cells, flg-Par4, AYPGKF activation; FIG. 4C
Method: Experiments shown in FIG. 3A-3C were carried out in MDA-MB-231 cells. […] Unpaired Student's t test was used. This experiment is a representative of three independent experiments performed in triplicates. […] HEK 293T cells were transfected with wt flg-Par4 followed by AYPGKF activation of PAR4. IP was performed using anti fig abs of cells treated or not with CTP4-A peptide and immunoblotting with anti-Akt abs.
FIG. 4A—PH-Akt module alone binds PAR4-C-tail but not mutant R25C. HEK 293 cells were transiently transfected with flg-Par4 construct and either with GFP-PH-Akt domain alone or GFP-R25C. IP of cell lysates following PAR4 AYPGKF activation was carried out using anti-flg abs. Detection of either Akt-PH domain alone associated with PAR4 was performed with anti-GFP. […] FIG. 4C—The PI3K inhibitor […] inhibits the binding of Akt to PAR4. Treatment of HEK 293 cells with LY294002 for various time points or not, following transient transfection with flg-Par4 and AYPGKF activation was performed. Cell lysates were immunoprecipitated with anti-flg antibodies, and anti-Akt was used to assess the association of Akt with the PAR4 C-tail. […]
HEK293 cells were transiently transfected with flg-Par4 followed by AYPGKF PAR4 activation in the presence and absence of PAR4c (4-4) within the range of 50 nM-150 μM. […] FIG. 8C—Histograms represent quantification of the cells/HPF invaded the Matrigel layer. […]

COC[C@H]1OC(=O)c2coc3c2[C@@]1(C)C1=C(C3=O)[C@@H]2CCC(=O)[C@@]2(C)C[C@H]1OC(C)=O [Wortmannin, reference compound]
inhibition of binding of Akt to PAR4 (IP): inhibited; also recorded: potent inhibition
